Assay results published in article doi:10.1101/2020.05.29.123851.
No constants are given. Whether binding was seen depends on the method and setting. Some binding calls cover weakened binding; strength is not graded here.

Chains of the proteins cited; added tags and fusions are not shown. Residues count along the entry.
UniProt P60615, 22-95: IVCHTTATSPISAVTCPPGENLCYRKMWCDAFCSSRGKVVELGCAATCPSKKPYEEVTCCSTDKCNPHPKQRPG
UniProt P04756, 21-230: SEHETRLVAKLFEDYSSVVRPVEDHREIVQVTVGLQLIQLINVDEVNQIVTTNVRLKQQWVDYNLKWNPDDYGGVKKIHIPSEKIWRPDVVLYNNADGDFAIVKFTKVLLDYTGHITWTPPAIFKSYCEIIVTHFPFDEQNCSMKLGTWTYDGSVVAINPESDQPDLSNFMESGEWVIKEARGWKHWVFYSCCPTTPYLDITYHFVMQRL

Target: alpha-bungarotoxin, biotin conjugate (UniProt P60615)
Experiment: pull-down

“GST-tagged α1 nAChR subunit ectodomain (from UniProt P04756 21-230) (domain or fragment)” was tested, and the binding was “binds”.
